Source: PubChem BioAssay AID1347426 (Functional Genomics Laboratory (NCATS/FGL), 2020)
Hit rate of the full screen: of about 31,000 sequences, about 1,400 (4.5%) were called active.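 How the source made its calls: active means median seed-adjusted z-score above 1 or below -1; inactive means the rest.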 The list shows a part of the results.

assay: Novel Modifiers of Survival Motor Neuron (SMN) Protein: Gene Identification via Genome-wide siRNA Screen; settings: HEK293T SMN2-luciferase reporter, siRNA knockdown, 72 h; actives lie on both sides;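 further: luminescence tracks full-length SMN protein made from the SMN2 reporter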
How it was run: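 siRNA screen, 10418 genes ×3 siRNAs; 1 pmol/well, lipid reverse transfection into HEK293T SMN2-luc reporter line. 72 h, 37 °C, 5% CO2; ONE-Glo readout. Data: neg-ctrl normalized, log10, MAD; hit = MAD >1.0 or < -1.0.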

Sequence	median seed-adjusted z-score
AGAUCGAGCCGGACAUGAUTT against NACC1	active: 1.59
CGAUUAUCUUUACAUAGGATT against NAMPT	inactive: 0
CCGUAAAUGUCCAUUUAUATT against CDKN2A	inactive: -0.0748
CAUCUAAUCAUGUCAUUGATT against PRMT5	inactive: -0.303
GGUUGUUCAGAAGCUCUUATT against MBOAT2	inactive: -0.282
ACUGGAUCUUGCUAACAUUTT against P2RX2	inactive: 0.0454
GCCCGGAAGUUUUCUGAAUTT against DZIP1L	inactive: 0.203
CAAACUCCCUGAUUCCCUUTT against CDC42BPG	inactive: 0.153
GGAAAACUGUGGUUUCGCUTT against ZNF451	inactive: 0
GGAAAGAUCUUCAAUCAUATT against ZNF597	inactive: 0.366
GGAACGCAGUCAGAUUUGATT against CA5B	inactive: 0.317
GAACAAGGUUUACGGACUATT against ZFHX3	inactive: 0.045
CGUUUCCUCUGAAGCCUAATT against FOXD2	inactive: -0.0853
CAACCAGAACCAUUGCAUUTT against OLAH	inactive: -0.44
GACUAUUACCUCAGACGUATT against GPR81	inactive: 0.0718
GGCCUACAGCAACAAUGGATT against PCDH24	inactive: 0.345
GGAAUAUUUCACCAAUUAATT against GON4L	inactive: 0.116
GAACACGCCCGGACAUAUATT against MAPK11	inactive: 0.0663
GGUCUAGCUGGGUAUUUAUTT against FAM3B	inactive: -0.327
GUAUCAUCGAGAAAGGAGATT against COX17	inactive: 0.772
GCAGCACGAGUCUCUGGAATT against BATF2	inactive: 0.714
GACAGAUUAUUGGAACCAATT against MID1	inactive: -0.294
CUCCCGCAGUUGAACAUCATT against OCRL	inactive: -0.545
GACCGGUUUAUGAAGUUAATT against PCDHA10	inactive: 0.0404
CAAGCGGAUUUCUACCCUUTT against PPP1R8	inactive: -0.029
GGAGUGUUCUGGAGAAGCATT against SLC7A10	inactive: -0.732
AGCUCAAAGAGUUCUCUAATT against PADI4	inactive: 0.417
AUACAUCAAAGAUUAGUAATT against NTS	inactive: 0.518
GUACCUGUCCGAGACCUAUTT against TFEB	inactive: 0.34
GCUCGUCUCUUACAGAACATT against ZNF391	inactive: 0.056

Already shown: an excerpt of the list.
Sequence	median seed-adjusted z-score
GCAGCACGAGUCUCUGGAATT against BATF2	inactive: 0.714
GACAGAUUAUUGGAACCAATT against MID1	inactive: -0.294
